Laboratory results from publication PMC7819943, “Rice protein-binding microarrays: a tool to detect cis-acting elements near promoter regions in rice”.
This is one part of the list.

Amino acid sequences for entries named in this document (tags omitted).
UniProt Q0JBA9, entry or part of it: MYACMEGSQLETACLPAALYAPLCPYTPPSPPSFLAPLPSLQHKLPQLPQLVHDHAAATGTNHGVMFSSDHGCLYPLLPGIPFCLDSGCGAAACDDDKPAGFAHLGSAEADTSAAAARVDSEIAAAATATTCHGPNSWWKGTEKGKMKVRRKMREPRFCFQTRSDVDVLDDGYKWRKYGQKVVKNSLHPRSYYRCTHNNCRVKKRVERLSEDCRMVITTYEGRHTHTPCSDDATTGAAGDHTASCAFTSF

Biological target: OsWRKY34 (Oryza sativa, UniProt Q0JBA9 1-250)
Assay: protein-binding microarray (RPBM); PBS, 2% BSA, 51.3 ng/ul salmon testes DNA, 50 uM zinc acetate, 200 nM TF, 25 C, 1 h; high values mean tight binding
Settings: protein: recombinant; tags: N-terminal polyhistidine and DsRed monomer fusion (pET32a); label: CyDye5-dUTP incorporated in the synthesized complementary strand; 3' TTTTT single-stranded linker to array surface; dsDNA, one strand shown
How it was run: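 Polyhistidine-tagged DsRed fusions of transcription factors, joined at the N-terminus, were expressed in E. coli BL21-CodonPlus and isolated on Ni–NTA. They were incubated at 200 nM for 1 h at 25 °C on a custom Agilent array, double-stranded and BSA-blocked, in PBS with 2% BSA, salmon testes DNA and 50 µM zinc acetate. The binding signal is per-feature fluorescence intensity (arbitrary units) read on an Axon 4000B scanner after washing.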

Sequence	binding signal
ACTCCTTTTCGTTTGCCTCCTATTTTCGAGTCACATAACACGGAGTCACCTAGTGCAG	8260 fluorescence intensity (a.u.)
AGCACTAGCACGAGCCCATCATCCACCCCTCAACTCCACTCGGAGTCACCTAGTGCAG	8750 fluorescence intensity (a.u.)
GAGTTAGTGTGGCTTTTGCCTTTCTGTTCCTTGCATCATGCGGAGTCACCTAGTGCAG	10700 fluorescence intensity (a.u.)
ATTCACACTCCACTTCACTCGCTCACGCTTCGCCGTCCGCCGGAGTCACCTAGTGCAG	9230 fluorescence intensity (a.u.)
CTCCCGCAACTTCACCGTCTCGTCTCATCTCATCTCGTCTCGGAGTCACCTAGTGCAG	10000 fluorescence intensity (a.u.)
CCGGCGACGAATTGCTGCAGGGGCGGTTCTTCTTCTTCGTCGGAGTCACCTAGTGCAG	9490 fluorescence intensity (a.u.)
GCTTTTGCATTGCCATTGTTTACCCAAATGTTGTAAGCATCGGAGTCACCTAGTGCAG	8310 fluorescence intensity (a.u.)
AAACATCATCTACTCATCTCTCTTTTATTTTTCTTTTATTCGGAGTCACCTAGTGCAG	8160 fluorescence intensity (a.u.)
TCGGTGGTCTTCTTGTTTTTCCTTCTGTATGTCAATCCTACGGAGTCACCTAGTGCAG	14700 fluorescence intensity (a.u.)
GGTTGTGTGAGATCGATGGTATATTTCCGTAAAAATAATTCGGAGTCACCTAGTGCAG	9370 fluorescence intensity (a.u.)
CTACTCCTCTCTGATTCCCTTGGCCAATTGTCCCTGGATGCGGAGTCACCTAGTGCAG	8980 fluorescence intensity (a.u.)
AATATAACTCCCGCGACCCGGCCATCTCGTCTCCACCATTCGGAGTCACCTAGTGCAG	9260 fluorescence intensity (a.u.)
TTGCCCGCTTATCGTTCTTTCTTCTTAAATATGTACTATCCGGAGTCACCTAGTGCAG	9110 fluorescence intensity (a.u.)
CCAGACTTATTTGATTCTCTCTTCTTTATATTTATCTTTTCGGAGTCACCTAGTGCAG	8950 fluorescence intensity (a.u.)
AGCTCTCTGCCAATCAAGCTACACACCTTGTTCCCCTACTCGGAGTCACCTAGTGCAG	8270 fluorescence intensity (a.u.)
CGTAAGCACGTCCTGATTCTTGTTGCATTTCTCGTCCTGACGGAGTCACCTAGTGCAG	11000 fluorescence intensity (a.u.)
TCCCTGCGTCGCAATGAATTGAGGGCTCATGGGCTTGGGGCGGAGTCACCTAGTGCAG	8740 fluorescence intensity (a.u.)
GGTTGGATGGTTGGATTTGATGTGGATTTGAATTGTTATGCGGAGTCACCTAGTGCAG	16300 fluorescence intensity (a.u.)
GGTTCTTGATTTTTCTTTTGGTTTGTTGTTTTGACGAATGCGGAGTCACCTAGTGCAG	11400 fluorescence intensity (a.u.)
CGAAATTACCAAGTTACCCTCGCCATTTTGACGCCTCCGTCGGAGTCACCTAGTGCAG	8620 fluorescence intensity (a.u.)
CATGTGAGTCCATGATAATCTTTTGGCCATTTTGTGCACCCGGAGTCACCTAGTGCAG	8130 fluorescence intensity (a.u.)

Sequence	binding signal
GCATTGTTTTGTTTTGTTTTTAATTTTGAAGCGAAAAGAGCGGAGTCACCTAGTGCAG	8790 fluorescence intensity (a.u.)
TCCCTCGTTCGCCGCGCGCACGCTTCTCGAACTGCTAAACCGGAGTCACCTAGTGCAG	8370 ± 238 fluorescence intensity (a.u.)
TATTGGTATGTGTGAGATGTATGAAAAATAAATTTATTTTCGGAGTCACCTAGTGCAG	8650 fluorescence intensity (a.u.)
CGCTTAGCCAACGCCCCGCCGACTTGGCCGCGCTCTCGCCCGGAGTCACCTAGTGCAG	8760 fluorescence intensity (a.u.)
TGCATCTTATCCTTCAGTTAGTCAACGGTAGTTGGCAATACGGAGTCACCTAGTGCAG	9130 fluorescence intensity (a.u.)
CTTTTGCAGAATACTTCTTTCTTGCCTCAATTATCATTAACGGAGTCACCTAGTGCAG	10100 fluorescence intensity (a.u.)
CCACGTGTTTATTGCGGTTATTCTGACCTGTTGACCGAAACGGAGTCACCTAGTGCAG	9210 fluorescence intensity (a.u.)
TTATGTTGTTTGTTTTTTTTTTTGCCAACAGAAGGTATCACGGAGTCACCTAGTGCAG	8280 fluorescence intensity (a.u.)
CAAATCCTTTCTGTGTCTAACGTTTGACCGTCCGTCTTATCGGAGTCACCTAGTGCAG	11100 fluorescence intensity (a.u.)
ACACCACTCTCCAATTCAATCTAGCTTCGTCTAGGATCCTCGGAGTCACCTAGTGCAG	8320 fluorescence intensity (a.u.)
GCCTCTTTTGAGTAAATTTTTGTAGCCATCTGTTGTAATTCGGAGTCACCTAGTGCAG	8660 fluorescence intensity (a.u.)
CGATTCTATTCCTAGGCCGCCCACACTATTGGGCCATCTCCGGAGTCACCTAGTGCAG	8740 fluorescence intensity (a.u.)
TACTACTAGCTGTCTCATGAATCTTATGTTTTCTAGGGTCCGGAGTCACCTAGTGCAG	8930 fluorescence intensity (a.u.)
GATGCTCCTAGTCCTATCCTAGTTCGTCGTCAACTCCGGCCGGAGTCACCTAGTGCAG	8960 fluorescence intensity (a.u.)
AAACCCGTCCAACCCAACTCCACTCCATCCTCTGCAGCCGCGGAGTCACCTAGTGCAG	9970 fluorescence intensity (a.u.)
TTGCAGTGGCATCGATCCAATTAACCCATCATCTTATTAGCGGAGTCACCTAGTGCAG	8580 fluorescence intensity (a.u.)
AACAATGATTTTCCTTTTGACTTTTTTGCCATTGTTCAACCGGAGTCACCTAGTGCAG	13300 fluorescence intensity (a.u.)
TTTTTTTCTGTATTTAATACTTCATACATGTATCCAAACACGGAGTCACCTAGTGCAG	8550 fluorescence intensity (a.u.)
TGAATTTTTTTACTAACATTTGACCATTTGTTTTATTCAACGGAGTCACCTAGTGCAG	8800 fluorescence intensity (a.u.)
TCCAAGGTCTCCGTCCACTTCATGGATTTTATTTTTTTCACGGAGTCACCTAGTGCAG	11200 fluorescence intensity (a.u.)
ATCATGGACCAGCTCTTTTTCGTTTTCGAGATTCTTTGTCCGGAGTCACCTAGTGCAG	13500 fluorescence intensity (a.u.)

In a second layout: entries from further up.
Sequence,binding signal
TATTGGTATGTGTGAGATGTATGAAAAATAAATTTATTTTCGGAGTCACCTAGTGCAG,8650 fluorescence intensity (a.u.)
CGCTTAGCCAACGCCCCGCCGACTTGGCCGCGCTCTCGCCCGGAGTCACCTAGTGCAG,8760 fluorescence intensity (a.u.)
TGCATCTTATCCTTCAGTTAGTCAACGGTAGTTGGCAATACGGAGTCACCTAGTGCAG,9130 fluorescence intensity (a.u.)
CTTTTGCAGAATACTTCTTTCTTGCCTCAATTATCATTAACGGAGTCACCTAGTGCAG,10100 fluorescence intensity (a.u.)
CCACGTGTTTATTGCGGTTATTCTGACCTGTTGACCGAAACGGAGTCACCTAGTGCAG,9210 fluorescence intensity (a.u.)
TTATGTTGTTTGTTTTTTTTTTTGCCAACAGAAGGTATCACGGAGTCACCTAGTGCAG,8280 fluorescence intensity (a.u.)
CAAATCCTTTCTGTGTCTAACGTTTGACCGTCCGTCTTATCGGAGTCACCTAGTGCAG,11100 fluorescence intensity (a.u.)
ACACCACTCTCCAATTCAATCTAGCTTCGTCTAGGATCCTCGGAGTCACCTAGTGCAG,8320 fluorescence intensity (a.u.)
GCCTCTTTTGAGTAAATTTTTGTAGCCATCTGTTGTAATTCGGAGTCACCTAGTGCAG,8660 fluorescence intensity (a.u.)
